Experimental data: article PMC5936716
Results are given in words; binding and its absence hold for the method and conditions named. Binding seen in cells or lysates may run through a third protein. Some binding calls cover weakened binding; strength is not graded here. Each block holds one substance with its values, some of them ahead of it.

Protein sequences, listed by entry. Tags and fused reporters are not part of them. Lines headed by an entry give the natural chain unless they say otherwise; changes in a name come on top. Residues count along the entry.
UniProt O95863: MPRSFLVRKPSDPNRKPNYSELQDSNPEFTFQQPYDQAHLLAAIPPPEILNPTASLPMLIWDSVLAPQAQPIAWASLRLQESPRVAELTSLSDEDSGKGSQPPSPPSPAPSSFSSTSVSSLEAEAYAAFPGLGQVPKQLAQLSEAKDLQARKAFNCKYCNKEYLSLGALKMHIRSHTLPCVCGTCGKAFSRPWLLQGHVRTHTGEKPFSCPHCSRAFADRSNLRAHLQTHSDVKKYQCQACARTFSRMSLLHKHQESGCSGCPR
GST-Snail-1-153: residues 1-153 of O95863
GST-Snail-153-264: residues 153-264 of O95863
UniProt Q05D32: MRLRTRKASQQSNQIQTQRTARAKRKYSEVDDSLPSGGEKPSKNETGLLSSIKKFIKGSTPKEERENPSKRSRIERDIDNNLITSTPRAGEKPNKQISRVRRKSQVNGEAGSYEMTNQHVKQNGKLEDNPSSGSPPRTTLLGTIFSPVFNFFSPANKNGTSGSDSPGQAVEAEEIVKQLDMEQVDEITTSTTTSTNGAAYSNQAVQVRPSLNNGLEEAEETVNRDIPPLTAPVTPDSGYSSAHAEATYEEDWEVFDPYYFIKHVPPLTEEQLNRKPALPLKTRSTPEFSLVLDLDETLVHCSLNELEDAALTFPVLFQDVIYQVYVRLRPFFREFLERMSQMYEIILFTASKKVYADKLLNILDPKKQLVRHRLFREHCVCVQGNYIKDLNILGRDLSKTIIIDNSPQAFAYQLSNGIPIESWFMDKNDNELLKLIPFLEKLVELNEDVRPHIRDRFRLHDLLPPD

Experiments:
[1] = molecular target: HA-Snail wild type, full length (HEK293T) (UniProt O95863); assay: co-IP; HEK293T co-transfected with HA-Snail (wild type or deletion mutants) and FLAG-SCP4 or FLAG-SCP4DN; anti-HA IP of Snail; blot for Snail-bound SCP4
[2] = molecular target: HA-Snail-1-153 (N-terminal region of Snail) (UniProt O95863); assay: as above
[3] = molecular target: HA-Snail-153-264 (C-terminal region of Snail) (UniProt O95863); assay: as above
[4] = molecular target: FLAG-SCP4DN, phosphatase-dead mutant (D293E, D295N) (HEK293T) (UniProt Q05D32); assay: co-IP; HEK293T co-transfected with HA-Snail and FLAG-SCP4 or FLAG-SCP4DN; anti-FLAG IP with protein A Sepharose at 4°C for 4 h in Myc lysis buffer (137 mM NaCl, 20 mM Tris-HCl pH 8.0, 1% Nonidet P-40); blot for Snail
[5] = molecular target: FLAG-SCP4 wild type, full length (HEK293T) (UniProt Q05D32); assay: as above
[6] = molecular target: HA-Snail (stably expressed in MCF10A cells) (UniProt O95863); assay: co-IP; lysates of MCF10A cells stably expressing HA-Snail immunoprecipitated with anti-HA antibody or control IgG; western blot for endogenous SCP4
[7] = molecular target: GST-Snail-153-264 (UniProt O95863); assay: pull-down; in vitro translated FLAG-SCP4 incubated with purified glutathione bead-bound GST, GST-Snail, GST-Snail-1-153 or GST-Snail-153-264; western blot; only the target purified
[8] = molecular target: GST-Snail-1-153 (UniProt O95863); assay: as above
[9] = molecular target: Full length GST-Snail fusion protein (UniProt O95863); assay: as above
[10] = molecular target: GST-SCP4 fusion protein (UniProt Q05D32); assay: pull-down; in vitro translated HA-Snail incubated with purified glutathione bead-bound GST or GST-SCP4; western blot; only the target purified

Substance: FLAG-SCP4 wild type, full length (HEK293T) (from UniProt Q05D32 1-466) (enzyme)
- binding [1]: binds
- binding [2]: binds
- binding [3]: binds weakly

Substance: FLAG-SCP4DN, phosphatase-dead mutant (D293E, D295N) (HEK293T) (from UniProt Q05D32 1-466) (enzyme)
- binding [1]: binds

Substance: HA-Snail wild type, full length (HEK293T) (from UniProt O95863 1-264)
- binding [4]: binds
- binding [5]: binds

Substance: in vitro translated FLAG-SCP4 (from UniProt Q05D32 1-466) (enzyme)
- binding [7]: binds weakly
- binding [8]: binds
- binding [9]: binds

Next, values leading:

- binding [6]: binds
Substance: endogenous SCP4 (CTDSPL2, C-terminal domain small phosphatase-like 2) (from UniProt Q05D32 1-466) (enzyme)

- binding [10]: binds
Substance: in vitro translated HA-Snail (from UniProt O95863 1-264)
